Assay results from US11779628B2, “Use of cell-permeable peptide inhibitors of the JNK signal transduction pathway for the treatment of various diseases” (Xigen Inflammation Ltd., priority 2014, dated 2023).
Not every detail of the peptide structures is certain; ends, links or a residue may be inferred.

Assays:
[1] = tested on: female Sprague-Dawley rats, CYP-induced cystitis; test: Cystometry in conscious rats with CYP-induced cystitis; assay type: in vivo, rat; settings: 2 mg/kg i.v.
[2] = tested on: female Sprague-Dawley rats, chronic CYP-induced cystitis; test: CYP-induced chronic cystitis, single intravesical treatment; assay type: in vivo, rat

## CC(C)C[C@@H](NC(=O)[C@@H](Cc1ccccc1)NC(=O)[C@H]1CCCN1C(=O)[C@@H](CCC(N)=O)NC(=O)[C@H](NC(=O)[C@H]1CCCN1C(=O)[C@@H](CCCNC(=N)N)NC(=O)[C@@H](CO)NC(=O)[C@@H](CCC(N)=O)NC(=O)[C@H](N)CC(=O)O)C(C)C)C(=O)N[C@H](CC(N)=O)C(=O)N[C@H](CC(C)C)C(=O)N[C@@H](C(=O)N[C@@H](C(=O)N1CCC[C@@H]1C(=O)N[C@H](CCCNC(=N)N)C(=O)N[C@H](CCCCN)C(=O)N1CCC[C@@H]1C(=O)N[C@H](CCCNC(=N)N)C(=O)N1CCC[C@@H]1C(=O)N1CCC[C@@H]1C(=O)N[C@H](CCCNC(=N)N)C(=O)N[C@H](CCCNC(=N)N)C(=O)N[C@H](CCCNC(=N)N)C(=O)N[C@H](CCC(N)=O)C(=O)N[C@H](CCCNC(=N)N)C(=O)N[C@H](CCCNC(=N)N)C(=O)N[C@H](CCCCN)C(=O)N[C@H](CCCCN)C(=O)N[C@H](CCCNC(=N)N)C(=O)NCC(=O)O)[C@H](C)O)[C@H](C)O [XG-102]
[1]; 30-60 min post-administration
  threshold pressure (ThP): a significant decrease in ThP
[1]; vs basal values
  intercontraction interval (ICI) and bladder capacity (BC): significantly increased ICI and BC 30-60 min post-administration
[2]; 50 mg/mL i.ves., D7
  bladder wall thickness and edema scores: resulted in decreased bladder wall thickness as well as in significantly decreased edema scores at D7
[2]; 20, 50 or 75 mg/mL
  anti-nociceptive effects, dose comparison: more pronounced at 50 mg/mL
[2]; 20, 50 or 75 mg/ml single i.ves., until D12
  CYP-induced chronic visceral pain (nociceptive threshold, allodynia, hyperalgesia): resulted in dose-depently reduced CYP-induced chronic visceral pain until D12
[2]; different doses, D12
  bladder wall thickness and edema scores: decreased the CYP-increased edema scores and bladder wall thickness in a dose-dependent manner
